# In paper PMC8214628:
# The chains behind the UniProt entries cited, without tags or fusion partners.
# UniProt P42229: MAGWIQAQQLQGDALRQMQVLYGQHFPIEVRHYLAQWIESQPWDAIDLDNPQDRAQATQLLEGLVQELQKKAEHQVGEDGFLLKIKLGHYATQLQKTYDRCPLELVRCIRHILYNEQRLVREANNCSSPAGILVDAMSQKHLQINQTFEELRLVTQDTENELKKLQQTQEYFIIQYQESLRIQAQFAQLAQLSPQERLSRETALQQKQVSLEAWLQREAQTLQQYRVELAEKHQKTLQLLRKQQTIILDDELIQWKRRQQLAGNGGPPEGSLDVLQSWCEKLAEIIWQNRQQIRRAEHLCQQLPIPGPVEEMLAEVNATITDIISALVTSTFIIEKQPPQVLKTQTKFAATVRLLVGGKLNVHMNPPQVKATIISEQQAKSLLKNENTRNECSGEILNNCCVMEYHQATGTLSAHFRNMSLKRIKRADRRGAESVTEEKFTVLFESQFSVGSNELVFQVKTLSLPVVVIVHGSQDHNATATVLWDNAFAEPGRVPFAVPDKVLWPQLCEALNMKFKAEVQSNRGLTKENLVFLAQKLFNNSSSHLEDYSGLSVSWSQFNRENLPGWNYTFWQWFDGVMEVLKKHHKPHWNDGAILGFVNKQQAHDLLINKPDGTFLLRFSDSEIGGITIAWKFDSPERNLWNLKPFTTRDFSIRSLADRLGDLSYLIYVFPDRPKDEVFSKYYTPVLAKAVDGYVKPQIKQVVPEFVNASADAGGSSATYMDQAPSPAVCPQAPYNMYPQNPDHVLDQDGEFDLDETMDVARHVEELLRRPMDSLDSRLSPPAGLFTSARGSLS
# UniProt P51692: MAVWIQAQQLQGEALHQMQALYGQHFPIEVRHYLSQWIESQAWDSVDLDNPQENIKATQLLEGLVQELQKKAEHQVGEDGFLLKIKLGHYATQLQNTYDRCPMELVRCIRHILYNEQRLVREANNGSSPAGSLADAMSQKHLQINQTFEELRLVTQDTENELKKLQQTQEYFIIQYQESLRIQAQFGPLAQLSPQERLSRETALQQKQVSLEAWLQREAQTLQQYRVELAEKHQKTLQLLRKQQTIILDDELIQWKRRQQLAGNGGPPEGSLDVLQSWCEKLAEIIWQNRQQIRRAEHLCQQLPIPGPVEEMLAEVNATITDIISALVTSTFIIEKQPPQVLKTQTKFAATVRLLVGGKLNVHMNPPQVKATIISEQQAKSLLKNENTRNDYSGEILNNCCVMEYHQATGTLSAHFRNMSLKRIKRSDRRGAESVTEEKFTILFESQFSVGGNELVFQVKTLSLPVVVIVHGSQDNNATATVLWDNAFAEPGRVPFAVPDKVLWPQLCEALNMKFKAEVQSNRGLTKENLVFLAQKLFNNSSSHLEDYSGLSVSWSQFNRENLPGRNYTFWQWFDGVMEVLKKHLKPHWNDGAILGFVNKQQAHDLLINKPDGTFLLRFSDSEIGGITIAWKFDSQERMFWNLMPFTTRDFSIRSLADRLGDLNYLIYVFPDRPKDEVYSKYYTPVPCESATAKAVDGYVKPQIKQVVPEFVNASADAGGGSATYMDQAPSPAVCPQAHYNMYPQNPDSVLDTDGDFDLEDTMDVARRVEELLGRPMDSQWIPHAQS
# These are yes or no findings as the source states them, for the method shown. Binding seen in cells or lysates may run through a third protein. These calls come from enrichment with a bait or labelling near it, and not all partners need be listed.
# Molecular target: FLAG-HA-STAT5A (UniProt P42229)
# Test: affinity purification with mass spectrometry; tandem affinity purification (TAP-MS) of STAT5A complexes from 293T cells stably expressing FLAG-HA-STAT5A; SDS-PAGE, mass spectrometry
substance,measurement,value
endogenous STAT5B (from UniProt P51692 1-787),binding,binds
